Data on three molecules can be found in paper PMC7474061.

For assay [1], the target named is Wildcat gp11-HA (mycobacteriophage Wildcat). Kind of assay: affinity purification with mass spectrometry; Wildcat gp11-HA expressed in M. smegmatis; anti-HA magnetic beads; not eluted after the washes, digested directly on the beads and analysed by tandem mass spectrometry; control: gp11 without the HA tag.
Assay [2] deals with LHTSCC gp46-HA (mycobacteriophage LHTSCC). Kind of assay: affinity purification with mass spectrometry; HA-tagged phage protein expressed in M. smegmatis (induced 4 to 7 h); lysate in 50 mM Tris-HCl, 1 mM EDTA, 0.5% Triton X-100, 1 mM PMSF; anti-HA agarose or magnetic beads; washed with lysis buffer and TBS; eluted with 2X non-reducing sample buffer; 4-20% SDS-PAGE; excised bands or whole eluate identified by mass spectrometry; control: the same phage protein without the HA tag.

The target of assay [3] is Wildcat gp13-HA (mycobacteriophage Wildcat). The description is as above.
Assay [4] has as its target Wildcat gp145-HA (mycobacteriophage Wildcat). Described as above.

Results are given in words; binding and its absence hold for the method and conditions named. In cells and extracts the contact can be indirect. A yes stands for co-enrichment or nearness to the bait. Other partners may have been found.

B1: PadR-family transcriptional regulator (Msmeg_6227) (protein, UniProt A0R5K8 1-246)
chain: MSTPFAFPTGDFGFGPAGRRAMLHHRRAARREFRDQMRAHLHEAREQALDPRCEMGGPGGPGPMGGPGRGFGGFGFGFDPGAGFGFGPGGPRGRRGHGRGRRGRRGDVRAAILKLLAERPMHGYEMIQEIGERTDNLWRPSPGSVYPTLQLLVDEGLISGTEAEGSKKLFELTEAGRAAAEAIETPPWEQIAEDVDPAAVNLRGAIAQLMGAVAQSAYTATEDQQQRILDVVNNARREIYQILGEE
For the molecule B1, the binding result in assay [1] and in assay [2] was “binds” throughout.

B2: Msmeg_1285 (protein, UniProt A0QRY7 1-801)
chain: MATVTDAVARILAEQGPLHTDEIERLLQASGEPVPEPVVDELSMPVGMLVDDRWVWLPTVLDGRVFTHRLSAHEVAHDMLDAAVDLDPVSDLFHLDEYLRLADGSPVSFAVADYDDELLEDRGIPLELAGESGVVLLAPGTLAALKAAEGDLVGLRLTDQGLALETIETVVDADIGNRLAEVLPGDEPTFVDAAALTLCAEDPTVFVEATAPLSEVIREAGLAYSDGFIAPAGFDFGRWRFETACHRSADTHGLDPDDAVALQTLIMALEQLTVDADSLPLLRRAGAALENPVVADALVEETVDAGRGSPESLSRLTEALEAQVPRPARAAVRWLRATALERAGDIAAAERELLAAETMDTEWPLTLVDLAHIASDRGDAERALALLRRAGFPPDHPNVQFLQRYLVAPRPDLGRNEPCWCGSGRKYKKCHLGNEQLSLEERAAWLYSKAAQHVSETHWHGMLLELALERSRYADDLHDAIAEAMSDPLVMDALLHEGDAFADFLRVRGPLLPDDERALAEQWLLVDRSVFEVQAVRPGETVTVRDVRTGDRHEVRERLASREVKPGELLCARVLPTGSIMQFFGGIERVSLGERDELIELLDSRPDEVTLVAALTRRFAPPTLTNTEGDLLMVCEAAVRFADPAALDAVYVRADDDPPHWFEHVPGKPQIRASLKLDGDTLRVETNSEERMDRVLAELGRLDPAMTVLEESRRPISEVTPPSRELLEPDDPEMIAAMEEFMRDYETRWLDESIPALNGLTPRQAADDPTRRGDLIKLLDSFPATERGMNADRLRAALGLD
Turning to B2, the binding entry in assay [3] was “binds”.

B3: thioredoxin disulfide reductase (Msmeg_1516) (protein, UniProt A0QSL0 1-552)
chain: MILSVDDDPAVSRAVARDLRRHYGERYRIVRAESGPDALETLHELKLRGDTVAVFVADYRMPQMSGIEFLESAMDLYPMARRVLLTAYADTNAAIAAINVVDLDHYLLKPWDPPEEKLYPVIDGLLEAWHAAGDRAIPYTKVIGHQWSPRSWEVRQFLARNQHTYRAFNADEPKGRQLLEAAGLDGMQLPVVITEGGTTLVEPTDAELADMLGLSTAPSLTMYDLAVIGGGPAGLAAAVYGASEGLKTVLIEGTTTGGQASRSSRIENYLGFPTGISGAELATSARRQAERFGAEVITTREAVKLEVAGSARTITFADGDTIGARAVILATGVDYRQLPVPGCWDDPDNPVNFIGRGVYYGASVSDAAECCDEDVYIVGGANSAGQAAMFMARTARSVTLLVRGPSLEASMSYYLIQQIEDTPNIHVRTCTEVVKAIGEDDHLVGLVLENKRTGEQEEVRSSRLCCFIGATPRTEWLDGVVARDEHGFILAGPDLRDVCGWTLERPPHHLETSVPGVFVAGDVRAESAKRVAAAVGEGSMAVMFVHRYLAES
On to B3, for which the binding entry in assay [4] was “binds”.
